Reference: the supplement of paper PMC5949888
Most values lie at the floor of the assay. Slopes are relative: functional sequences can read slightly below zero.

Test system: Saccharomyces cerevisiae PS128 hsf1 delta, HSF1(1-493) fusion
Test: growth estimate (transactivation domain function in HSF1 fusion, heat-shock survival) (a.u. (slope of normalised read count over time)); higher = stronger growth at 37°C, i.e. more transactivation activity
Conditions: library: random library

Substance	growth estimate
TVLTVCLRHFSNSALIVWWI	< -0.25
VERKRPLPQSVPAGQFDNSA	< -0.25
WFLRDRLYCFNAIVTRKSAR	< -0.25
LNT	< -0.25
IPSNIHFPLVQMGYRASKSG	< -0.25
LRGR	< -0.25
LRGRSSLLRINGQ	< -0.25
SRARDLPRRDNQMRRGLEYR	< -0.25
LGVSPMR	< -0.25
FSAQWPVFVTSGAILIAVRV	< -0.25
RGWDWQITGPC	< -0.25
LGRPKSGHARERELP	< -0.25
ELRRTACTNGDLT	< -0.25
IGLHCDPQQSTSDAGRLNLR	< -0.25
SVRDDLNWILAHYAGLLRRL	< -0.25
AKRFGRRRPVMKSQLITA	< -0.25
ETSARPGASPEFYRITWDSA	< -0.25
PGPMRKWRRCVSRAWALRRC	-0.245
AGSWNLVMLCSGANPNYFLG	< -0.25
SMVTGQA	< -0.25
DTCQVPAHQRRFMAALYGAG	< -0.25
HYCLAGADGRSMYRAPLTRR	< -0.25
WKKEVSYSSPKRPWKED	-0.205
LESGL	< -0.25
PSWTVRPLA	< -0.25
RIGVSHAPRSSIVGRMRSMG	< -0.25

Substance	growth estimate
VNNIEP	< -0.25
RSGLSPLSLVVGPPLVWASL	< -0.25
IAWASVESPGRN	< -0.25
SKSPCIFNADRQNPFPPRGT	< -0.25
KELGLRSVPT	< -0.25
NERRIIELRTRSIRAASGSL	< -0.25
RKLRRWRPIPWIGGCYVAIL	< -0.25
DLVIVTRITRTS	< -0.25
EIVLKLT	< -0.25
RNDGIYFPPCDGPECRE	< -0.25
PYNTSSRSQLVARSGKGMPF	< -0.25
SRCVSGAS	< -0.25
RRLVETGAHVGDPNRRGSSN	< -0.25
ITPSRHGQALPGNWMEATCP	< -0.25
AGLDPLYRRLRISRCHSMGV	< -0.25
YSSALISNAYEVYVSLNLWL	< -0.25
SRAWDKRAAWLTRLTRWSRS	< -0.25
PQAVRQRGQGCAPRGYAARL	< -0.25
IYQPACILCFDRNYTTGADL	< -0.25
QLAIGLARSGALRGTACAHD	< -0.25
TMVRT	< -0.25
DGRIIKHRPDGHGTYPLHNA	< -0.25
IAGNDLAGLPSDPDWCVLRF	< -0.25
SLE	-0.246
GCRDRMHARVRAV	< -0.25
TTRPWDLSTS	< -0.25

Substance	growth estimate
DGIRECCRLRTSV	< -0.25
GRIKTVATRKFPQG	< -0.25
CLSKNDNLQFVGRR	-0.145
TGTADSQPHVR	< -0.25
TVFASGSSMWLLTCDSRALS	< -0.25
IMYAWFDPPRSKFCPGALLA	-0.0077
KKFHRQWLRPGTRGREQLSC	< -0.25
SAEYMLIGACSEFAKSGHVS	< -0.25
PLGGSA	< -0.25
LWEQ	< -0.25
RTVRSQRVSQPLKPFHLRSR	< -0.25
LPETK	< -0.25
TGLLYCRGTMVCL	< -0.25
SVSTGTAIFLKGRTVVRWGS	< -0.25
NQLSLMLHNSIGRGLAVSPY	< -0.25
PGRPTRWQCEV	< -0.25
VAFTGKKCMLCSNALFFGRS	< -0.25
MVLHTHLAEYLTHVYRCLMV	< -0.25
ERGDFER	< -0.25
AGVAYQRLNTGLPRPIRHRP	< -0.25
YCVITHRSVVLAHSTGEKQP	< -0.25
SSLTIASRTESERA	< -0.25
LMLREGKFIITAPIRSGRIT	< -0.25
PGHQSPSSLVCTGRSG	< -0.25
GVITIPNIVVRDYVTLVSFY	< -0.25
PWIAR	< -0.25

Substance	growth estimate
TIVEDIRCATGLLLIFSGVR	< -0.25
PHSVTGPNICGSPSQRGLSV	< -0.25
KCCIGVRMP	-0.231
IGSQDPPNHRSWATCYRGFM	< -0.25
HLQRTGHRGSTTCS	< -0.25
TSPAGLTMSAEGNCLFSQGG	< -0.25
KCLGRLLLRLIEWAHDVLLM	< -0.25
TLLGFHRERRGVVPKQSRKP	< -0.25
REQPAGR	< -0.25
RGSFRSCPRRVSRLLLGAGP	< -0.25
CCYIIEAWSWRSPSKKDGRQ	< -0.25
QYGLPYKTGVIDMQTKLSSL	< -0.25
VGVRQRSGQCEVPFEPKVPG	< -0.25
CVVPLGSGFSCRRMIVQVCT	< -0.25
LAG	< -0.25
DVDYRPGQGSPTMSVRGPSP	< -0.25
IRRARMTYHPGELTLFQLRE	< -0.25
IQSPR	< -0.25
GHYIAGCFSGLAAAVIRG	< -0.25
GRGSSRGTAVTQC	< -0.25
VHVVQA	< -0.25
RISAALRSCGGCVPLKSRFA	< -0.25
RCTASMLLSFGAHQCSR	< -0.25
GHAGRLSGFSSTLSPDNRCY	< -0.25
WPTYGSSGMEHISASRCNFR	< -0.25
QDFGDTHDAEGPFNSRSNRH	< -0.25

Substance	growth estimate
CWGRSTTVIRYTAFKPTSWG	< -0.25
CKRMENYAECETLHR	< -0.25
ISNPCRISALGKVALPGL	< -0.25
RALRHKTLAST	< -0.25
ASVTSFSLSQLRRSVSDVDP	< -0.25
KQAS	< -0.25
FGGFEVDIL	< -0.25
AKYESVRTIDSDAVRVNECD	-0.198
YSRSRARSRTAEGRIDQGLG	< -0.25
HQRYCLVPSANYYVRVTCTY	< -0.25
VNSNRPRLTCKTEGP	< -0.25
DLVRLPPV	< -0.25
SLTERAPG	< -0.25
FIGLRAERPMLRAPSGKRLP	-0.245
RPR	< -0.25
AHGD	< -0.25
NVLQNSVQPLSEGHRSEYPH	< -0.25
SWRSFSQCHWVTVAPRTFNH	< -0.25
VTYGVGITSPHPCSKTCVQN	< -0.25
TKESRSAISVVKNIIFLLQG	< -0.25
GNDVLVSPRLPKCSRPRTFA	< -0.25
MGTCHPASLALRFCVYSASM	< -0.25
VPGGGPIGPSEFNVKSTVPN	< -0.25
STAHIRSDYPTMAAIF	< -0.25
EARRLPGTKGRTLLSAWVQE	< -0.25
GSIMTLGN	< -0.25

Quoted at random: 6 records from the list
Substance	growth estimate
VNSNRPRLTCKTEGP	< -0.25
ASVTSFSLSQLRRSVSDVDP	< -0.25
RPR	< -0.25
GSIMTLGN	< -0.25
FIGLRAERPMLRAPSGKRLP	-0.245
CWGRSTTVIRYTAFKPTSWG	< -0.25

Continuation:

Substance	growth estimate
QELKFGRKSFTGESSDVTSR	< -0.25
YPCIGDNIRRFSCSIVTP	< -0.25
QWACGNRFHLLELRTFIAHS	< -0.25
TSQLPSGAVDTQIPSTMVIP	< -0.25
TIVFEFLEYYGLRLMQTLM	< -0.25
SISIPKSCLFLGWARKDRSD	< -0.25
VLPLSYGLENGNIYEWHWVS	< -0.25
GTSGFYGTGGSEQGSVSVVN	< -0.25
GGGIPEGLEDGPYRINYIGR	< -0.25
SRSASGVIAKVACRIVLARR	< -0.25
PTARI	< -0.25
LLVITLGVCRAH	< -0.25
PGRDCFAEDT	< -0.25
LNSCAQFYTDGPLSWDASDI	< -0.25
YYRFHQLGAQYFTTSVTIGP	< -0.25
KGRAECGN	< -0.25
PYD	< -0.25
HVRLHLVFMKGSTSFIPNQL	< -0.25
KCSIVSGRSVDLWWPYIG	< -0.25
VYTDSGDYDIYSP	< -0.25
QYV	< -0.25
STPSRFIVQRYATVLISWL	< -0.25
DQFQGFDKARLSTINLYGIL	< -0.25
PAFTSLCIYCISC	< -0.25
